Assay results: article PMC13000003
These are yes or no findings as the source states them, for the method shown. In cells and extracts the contact can be indirect. Some entries that bind do so weakly or less than the wild type.

Sequences of proteins named here, by UniProt entry; tags and fusion partners are left off.
UniProt Q96LD4: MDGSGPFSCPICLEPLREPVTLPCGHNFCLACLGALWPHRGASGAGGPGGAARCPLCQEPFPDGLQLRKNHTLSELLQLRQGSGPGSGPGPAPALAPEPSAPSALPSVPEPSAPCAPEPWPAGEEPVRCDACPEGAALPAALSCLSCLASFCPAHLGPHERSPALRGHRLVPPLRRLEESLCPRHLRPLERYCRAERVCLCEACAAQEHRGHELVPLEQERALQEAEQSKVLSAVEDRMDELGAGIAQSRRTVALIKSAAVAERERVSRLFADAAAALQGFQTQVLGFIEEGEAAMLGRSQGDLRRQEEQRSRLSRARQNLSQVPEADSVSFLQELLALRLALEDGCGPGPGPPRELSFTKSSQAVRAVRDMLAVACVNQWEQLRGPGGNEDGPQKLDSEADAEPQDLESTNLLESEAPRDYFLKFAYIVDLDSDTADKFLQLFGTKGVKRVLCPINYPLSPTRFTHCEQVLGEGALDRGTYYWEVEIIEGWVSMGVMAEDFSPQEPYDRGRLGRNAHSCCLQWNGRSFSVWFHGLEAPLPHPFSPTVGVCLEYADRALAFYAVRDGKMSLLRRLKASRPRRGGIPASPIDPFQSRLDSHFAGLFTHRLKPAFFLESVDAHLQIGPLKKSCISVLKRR
UniProt Q14145: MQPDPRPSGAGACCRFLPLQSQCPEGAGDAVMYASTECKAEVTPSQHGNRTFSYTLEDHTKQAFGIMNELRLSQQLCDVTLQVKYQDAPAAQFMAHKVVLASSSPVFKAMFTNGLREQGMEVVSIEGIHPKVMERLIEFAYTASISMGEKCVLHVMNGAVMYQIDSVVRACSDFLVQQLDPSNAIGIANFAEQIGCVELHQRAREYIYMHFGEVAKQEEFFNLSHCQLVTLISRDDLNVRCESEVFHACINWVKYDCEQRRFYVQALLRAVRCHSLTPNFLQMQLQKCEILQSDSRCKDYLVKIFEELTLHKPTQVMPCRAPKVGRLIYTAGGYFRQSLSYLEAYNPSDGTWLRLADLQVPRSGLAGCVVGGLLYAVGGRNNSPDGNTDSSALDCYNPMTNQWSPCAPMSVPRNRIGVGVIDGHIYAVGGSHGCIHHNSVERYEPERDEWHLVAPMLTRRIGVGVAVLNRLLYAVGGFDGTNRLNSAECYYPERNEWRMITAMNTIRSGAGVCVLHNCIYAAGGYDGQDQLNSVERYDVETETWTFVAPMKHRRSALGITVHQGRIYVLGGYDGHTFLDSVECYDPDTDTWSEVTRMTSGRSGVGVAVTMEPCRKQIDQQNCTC

Columns and labels:
TRIM47-myc-Flag (human) [1] = target: TRIM47-myc-Flag (human) (UniProt Q96LD4); test: co-IP; semi-endogenous Co-IP: HEK293 co-transfected with TRIM47-myc-Flag or empty vector and HA-Ubiquitin; endogenous KEAP1; cells treated with DMSO, 10 µM MG132 and/or 0.1 µM MLN4924 for 4 h before lysis; Protein A/G magnetic agarose beads, +4 °C
TRIM47-myc-Flag (human) [2] = target: TRIM47-myc-Flag (human) (UniProt Q96LD4); test: co-IP; whole cell lysates of HEK293 co-transfected with TRIM47-myc-Flag and KEAP1-Flag; immunoprecipitated with myc antibody, Protein A/G magnetic agarose beads, +4 °C; blotted for myc (TRIM47) and KEAP1

KEAP1 (endogenous) (from UniProt Q14145 1-624)
binding (TRIM47-myc-Flag (human) [1]): binds

KEAP1-Flag (from UniProt Q14145 1-624)
binding (TRIM47-myc-Flag (human) [2]): binds
